Values from PubChem BioAssay AID743121 (NCATS, 2013).

Aim: 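Knock-downs that sensitise breast cancer cells to camptothecin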 (primary screen)
System: MDA-MB-231 cells, a human breast cancer line
Knock-down reagent: single siRNA against human genes, 20 nM siRNA (0.8 pmol per well)
Time to read-out: 120 h (drug added 48 h after transfection, read 72 h later)
Challenge: camptothecin 20 nM (about EC30) for 72 h; vehicle 0.1% DMSO in parallel plates
Read-out: 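CellTiter-Glo ATP signal, scaled to control siRNA as percent viability; sensitisation given as log2 of untreated divided by camptothecin-treated viability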
Direction: log2 vehicle/camptothecin viability: higher = stronger sensitisation to camptothecin
Rule for the call: 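Active genes have an RSA gene-level p-value below 0.001, computed from the ratios of their separate siRNAs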
This is an unselected part of about 26,000 reagents tested. 167 of all reagents (0.63%) were called active. 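Calls are per gene from RSA p-values that are not deposited; an individual active-marked siRNA can sensitise only weakly.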 Unmarked entries are inactive. Reagents against one gene are numbered here. Not all columns of the deposit are shown. Reagent sequences are not shown.

log2 vehicle/camptothecin viability, by target gene and reagent
HECTD2 (HECT domain E3 ubiquitin protein ligase 2): #1 0.266; #2 -0.326; #3 -0.236; #4 -0.0414
CDK17 (cyclin dependent kinase 17): #1 -0.000476; #2 -0.519; #3 0.309; #4 -0.114
PPP2R2B (protein phosphatase 2 regulatory subunit Bbeta): #1 -0.372; #2 -0.26; #3 -0.384; #4 0.176
GUCY2D (guanylate cyclase 2D, retinal): #1 0.06; #2 -0.00268; #3 -0.189; #4 0.667
CRHR1 (corticotropin releasing hormone receptor 1): #1 -0.289; #2 -0.0315; #3 -0.333; #4 -0.304
GPRC6A (G protein-coupled receptor class C group 6 member A): #1 -0.25; #2 0.0981; #3 -0.665

Reformatted: results already given.
Target gene | siRNA no. | log2 vehicle/camptothecin viability
CRHR1 (corticotropin releasing hormone receptor 1) | 2 | -0.0315
CRHR1 (corticotropin releasing hormone receptor 1) | 3 | -0.333
CRHR1 (corticotropin releasing hormone receptor 1) | 4 | -0.304
GPRC6A (G protein-coupled receptor class C group 6 member A) | 1 | -0.25
GPRC6A (G protein-coupled receptor class C group 6 member A) | 2 | 0.0981
GPRC6A (G protein-coupled receptor class C group 6 member A) | 3 | -0.665

Further records follow:
log2 vehicle/camptothecin viability, by target gene and reagent
YWHAQ: #1 1.14; #2 -0.133; #3 0.369; #4 -0.542
KCNJ3 (potassium inwardly rectifying channel subfamily J member 3): #1 -0.105; #2 0.0563; #3 -0.0525
MTMR4 (myotubularin related protein 4): #1 -0.164; #2 -0.234; #3 -0.247; #4 0.00192
BCL6 (BCL6 transcription repressor): #1 0.126; #2 -0.118; #3 0.067; #4 -0.156
MMP7 (matrix metallopeptidase 7): #1 -0.293; #2 -0.497; #3 -0.408; #4 0.0168
NR6A1 (nuclear receptor subfamily 6 group A member 1): #1 0.468; #2 0.2; #3 -0.00883; #4 -0.0797
LPL (lipoprotein lipase): #1 0.119; #2 -0.0782; #3 -0.224; #4 -0.0513
APEH (acylaminoacyl-peptide hydrolase): #1 -0.36; #2 0.0575; #3 -0.0661; #4 0.00286
HSP90AB1 (heat shock protein 90 alpha family class B member 1): #1 1.79; #2 0.253; #3 -0.21; #4 0.0713
GMDS (GDP-mannose 4,6-dehydratase): #1 -0.283; #2 -0.223; #3 -0.436; #4 0.138
ADGRG5 (adhesion G protein-coupled receptor G5): #1 -0.466; #2 -0.131; #3 -0.129; #4 0.767
YAP1 (Yes1 associated transcriptional regulator): #1 -0.336; #2 -0.0722; #3 -0.146; #4 -0.108
